Results are given in words; binding and its absence hold for the method and conditions named. Some results given as binding are weak or reduced against the parent protein; the word gives no strength.
B1: anti-CD38 scFv Clone D06 (scFv, V domains shown)
VH: EVQLVESGGSLVKPGGSLRLSCAASGFTFSNYDMNWVRQAPGKGLEWISYIYGSSRDISYADFVKGRFTISRDNAKNSLYLQMNSLRAEDTAVYYCVRSSGYYFGYGMDVWGRGTLVTVSS
VL: QSVLTQPASVSGSPGQSITISCAGTSSDVGGSYYVSWYQQHPGKAPKLMIYSDSYRPSGVSNRFSGSKSGNTASLTISGLQAEDEADYYCSSNTAYSTRVFGGGTKL
B2: anti-CD38 scFv Clone C05 (scFv, V domains shown)
VH: EVQLVESGGSLVKPGGSLRLSCAASGFTFSNNYMNWVRQAPGKGLEWISSISGSSRYISYADFVKGRFTISRDNAKNSLYLQMNSLRAEDTAVYYCVRSSSSYYYSGNGMDVWGRGTLVTVSS
VL: QSVLTQPASVSGSPGQSITISCAGTSSDVGGSSYVSWYQQHPGKAPKLMIYYDSYRPSGVSNRFSGSKSGNTASLTISGLQAEDEADYYCSSNTYYSTRVFGGGTKL
B3: anti-CD38 scFv Clone B08 (scFv, V domains shown)
VH: EVQLVESGGSLVKPGGSLRLSCAASGFTFSNYYMNWVRQAPGKGLEWISSISGSSRSIYYADFVKGRFTISRDNAKNSLYLQMNSLRAEDTAVYYCVRSSDDYYYDYGMDVWGRGTLVTVSS
VL: QSVLTQPASVSGSPGQSITISCAGTSSDVGGSYSVSWYQQHPGKAPKLMIYDDSNRPSGVSNRFSGSKSGNTASLTISGLQAEDEADYYCSSYTDYSTRVFGGGTKL
B4: anti-CD38 scFv Clone D07 (scFv, V domains shown)
VH: EVQLVESGGSLVKPGGSLRLSCAASGFTFSNSAMNWVRQAPGKGLEWISYISGSSRDISYADFVKGRFTISRDNAKNSLYLQMNSLRAEDTAVYYCVRSSSSYYYSGSGMDVWGRGTLVTVSS
VL: QSVLTQPASVSGSPGQSITISCAGTSSDVGGNSYVSWYQQHPGKAPKLMIYYDSYRPSGVSNRFSGSKSGNTASLTISGLQAEDEADYYCSSNTYYSTRVFGGGTKL
B5: anti-CD38 scFv Clone C06 (scFv, V domains shown)
VH: EVQLVESGGSLVKPGGSLRLSCAASGFTFSNSAMNWVRQAPGKGLEWISSISGSSRNIYYADFVKGRFTISRDNAKNSLYLQMNSLRAEDTAVYYCVRSSYSSYGSGNGMDVWGRGTLVTVSS
VL: QSVLTQPASVSGSPGQSITISCAGTSSDVGGSSYVSWYQQHPGKAPKLMIYYDSYRPSGVSNRFSGSKSGNTASLTISGLQAEDEADYYCSSNTYYSTRVFGGGTKL
B6: anti-CD38 scFv Clone D10 (scFv, V domains shown)
VH: EVQLVESGGSLVKPGGSLRLSCAASGFTFSNSAMNWVRQAPGKGLEWISSISGSSRDIYYADFVKGRFTISRDNAKNSLYLQMNSLRAEDTAVYYCVRSSSSYYYSGNGMDVWGRGTLVTVSS
VL: QSVLTQPASVSGSPGQSITISCAGTSSDVGGNSYVSWYQQHPGKAPKLMIYYDSYRPSGVSNRFSGSKSGNTASLTISGLQAEDEADYYCSSNTYYSTRVFGGGTKL

Amino acid sequences for entries named in this document (tags omitted). A change or cut given only in a name is not applied to a line headed by its entry.
UniProt P28907: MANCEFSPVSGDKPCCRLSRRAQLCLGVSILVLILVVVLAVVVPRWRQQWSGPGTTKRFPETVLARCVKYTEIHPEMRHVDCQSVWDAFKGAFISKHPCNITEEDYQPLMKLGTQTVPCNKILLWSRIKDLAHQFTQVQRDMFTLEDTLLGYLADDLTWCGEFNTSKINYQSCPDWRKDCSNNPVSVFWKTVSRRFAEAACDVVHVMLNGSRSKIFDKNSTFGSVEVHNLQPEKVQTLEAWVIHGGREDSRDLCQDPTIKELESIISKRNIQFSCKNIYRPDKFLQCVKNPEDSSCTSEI

Molecular target: human CD38 (human) (UniProt P28907)
Assay: phage display selection on human CD38 extracellular domain; binding confirmed by FACS on CD38+ Jurkat T cells

binding, binds:
B1
B2
B3
B4
B5
B6

— patent US20220089765A1, “CD31 COMPETITORS AND USES THEREOF” (ENCEFA, priority 2019, published 2022)
